Assay results: doi:10.1101/2021.05.22.445289
These are yes or no findings as the source states them, for the method shown. Binding seen in cells or lysates may run through a third protein. Sequences can lack the tags named with a protein.

The chains behind the UniProt entries cited, without tags or fusion partners.
UniProt P55258: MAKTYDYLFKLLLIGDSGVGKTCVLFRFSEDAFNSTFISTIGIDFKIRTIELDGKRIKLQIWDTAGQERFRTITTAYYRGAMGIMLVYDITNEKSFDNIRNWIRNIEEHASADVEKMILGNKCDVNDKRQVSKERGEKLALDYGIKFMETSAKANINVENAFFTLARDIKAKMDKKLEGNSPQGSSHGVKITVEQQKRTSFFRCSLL
UniProt Q640N2: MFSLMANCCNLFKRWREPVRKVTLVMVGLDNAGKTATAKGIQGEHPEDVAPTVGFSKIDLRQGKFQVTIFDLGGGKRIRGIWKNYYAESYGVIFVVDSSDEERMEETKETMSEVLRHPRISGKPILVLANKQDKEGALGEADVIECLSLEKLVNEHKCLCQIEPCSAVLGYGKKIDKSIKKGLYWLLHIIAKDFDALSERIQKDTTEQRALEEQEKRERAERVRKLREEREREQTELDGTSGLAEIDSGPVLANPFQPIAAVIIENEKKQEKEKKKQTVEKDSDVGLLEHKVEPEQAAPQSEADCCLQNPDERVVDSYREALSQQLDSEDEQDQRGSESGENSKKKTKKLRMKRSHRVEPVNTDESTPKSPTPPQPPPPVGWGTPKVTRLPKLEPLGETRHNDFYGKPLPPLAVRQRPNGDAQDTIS

Target: T1, 3xFlag-TST (Twin-Strep-tag)-tagged Tmem138 (mouse) (UniProt Q9D6G5)
T1 sequence: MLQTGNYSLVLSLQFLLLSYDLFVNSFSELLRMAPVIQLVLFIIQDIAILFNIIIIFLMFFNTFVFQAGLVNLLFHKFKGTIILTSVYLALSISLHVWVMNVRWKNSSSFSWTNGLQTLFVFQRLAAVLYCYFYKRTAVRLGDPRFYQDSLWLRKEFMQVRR
Experiment: pull-down

Substance	binding
Rab8a-Flag (from UniProt P55258 1-207)	no binding
Arl13b-Flag (from UniProt Q640N2 1-427)	no binding
